The values that follow come from PubChem BioAssay AID2685 (National Center for Advancing Translational Sciences (NCATS), 2010).

The other results are listed elsewhere or left out. Further columns of the screen follow, without active or inactive calls. Most of these compounds were active or inconclusive in the main read-out, so they are no random draw. Potencies come from curve fits of mixed quality, noted in brackets.

The assay is described as follows: qHTS Assay for Lipid Storage Modulators in Drosophila S3 Cells.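 As to cell number change: cells counted by Cell Tracker Red CMTPX staining in the red channel.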 The note with it: BODIPY lipid droplet fluorescence, 18-24 h; for cell number change: measured here: cell count max response, cells fed with added oleic acid. The essentials:
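Drosophila S3 cells got compounds at several concentrations plus oleic acid (400 uM solution). Laser-scanning cytometry with 488 nm excitation read lipid droplets at 500-530 nm and cells at 575-640 nm. Percent activity was relative to 20 uM Triacsin C.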

[1] abbreviates: measured here: cell number channel AC50, cells fed with added oleic acid.
Where [2] appears, read: measured here: lipid fluorescence (Fed channel) AC50, cells fed with added oleic acid.

By AC50 is commonly meant the concentration giving half of the maximal activity seen. Low readings indicate activity at low concentration, high ones activity only at high concentration. Turning to `O=C(CN1CCN(Cc2ccccc2)CC1)NNC(=O)c1ccc(Cl)cc1`, the cell number change was -75%. Besides, the AC50 under setting [1] was 23.1 µM [falling, partial curve, poor fit].

On to `CCCCC(=O)Nc1ccc(C(=O)Nc2nc(CC(=O)OCC)cs2)cc1`, for which the cell number change is -2.12%. The AC50 under setting [2] was 6.51 µM [rising, single point].

On to `Cc1ccccc1OCc1nc(-c2ccccc2)no1`, for which the cell number change was 2.55%. Under setting [2], the AC50 is 2.06 µM [rising, partial curve].

For `CCOC(=O)c1csc(N)c1-c1ccc([N+](=O)[O-])cc1`, the cell number change came to 4.54%. Besides, the AC50 under setting [1] is 0.184 µM [rising, partial curve, poor fit]. Moreover, the AC50 under setting [2] is 0.651 µM [rising, full curve, poor fit].

Turning to `Cc1ccc(NC(=O)COC(=O)Cn2c(C)csc2=O)c([N+](=O)[O-])c1`, the cell number change was determined as 19%.

On to `Cc1cccc(NC(=S)N=Nc2c(O)n(CN3CCOCC3)c3ccccc23)c1C`, for which the cell number change is -1.45%. Under setting [2], the AC50 was 20.6 µM [falling, single point].

In the case of `Cc1ccc(/C=C/C(=O)c2nc3ccccc3[nH]2)cc1`, the cell number change was -46.3%. Besides, the AC50 under setting [1] was 18.4 µM [falling, single point]. Further, the AC50 under setting [2] is 20.6 µM [falling, partial curve].

Turning to `COc1cccc(C=O)c1OCCN1C(=O)c2ccccc2C1=O`, the cell number change turned out to be 12.6%. Further, the AC50 under setting [1] is 0.461 µM [rising, partial curve, poor fit]. Also, the AC50 under setting [2] is 6.51 µM [rising, single point].

In the case of `Cc1cccc(N(Cc2cc3ccccc3[nH]c2=O)S(=O)(=O)c2ccccc2)c1`, the AC50 runs as follows: under setting [1], 0.92 µM [rising, full curve]; under setting [2], 0.651 µM [rising, partial curve, poor fit].

`O=C1CN(C(=O)COC(=O)c2ccc[n+]([O-])c2)c2ccccc2N1`: the cell number change was -50.7%. In addition, the AC50 under setting [1] is 29.1 µM [falling, single point]. For the same compound, the AC50 under setting [2] is 20.6 µM [falling, single point].

For the compound `CCCCCCNC(=O)C(=O)NCCc1ccc(Cl)cc1`, the cell number change stood at 13.5%.

Turning to `Cc1cc(-n2cnnn2)cc(C)c1S(=O)(=O)N(C)c1ccccc1`, under setting [2], the AC50 is 11.6 µM [falling, partial curve].

Turning to `CC(=O)Oc1c(-c2ccc(Br)o2)oc2ccccc2c1=O`, the cell number change was -12.1%.

`C/C(CC(=O)Nc1ccc(N(C)C)cc1)=N\NC(=O)c1ccc([N+](=O)[O-])cc1Cl`: the cell number change is -43.6%. Further, the AC50 under setting [1] is 29.1 µM [falling, single point].

As to `O=C(NCc1ccco1)C(c1ccccc1)N(CC1CCCO1)C(=O)Cn1nnc2ccccc21` (stereo unspecified), the cell number change is -11.8%. Also, under setting [1], the AC50 is 0.00517 µM [falling, full curve, poor fit].

Regarding `COc1ccc(Nc2nc(Cl)nc(NCc3ccco3)n2)cc1`, the cell number change is -12.1%. Further, under setting [2], the AC50 is 0.366 µM [falling, partial curve].

Consider `Cc1cc(C(=O)N2CCN(Cc3ccccc3)CC2)on1`, for which the cell number change is -48%. The AC50 under setting [1] is 0.82 µM [falling, full curve]. The AC50 under setting [2] was 0.206 µM [rising, full curve].

Take `COc1ccc(C)cc1S(=O)(=O)Nc1cc2c3c(c1)C(C)C(=O)N3CCC2` (stereo unspecified): the cell number change came out at 61.6%. Moreover, the concentration at half-maximal activity (AC50) under setting [1] is 8.2 µM [rising, partial curve].

Turning to `CC(C)Cn1c(N)c(C(=O)COC(=O)c2c(F)cccc2F)c(=O)n(C)c1=O`, the cell number change is 28.4%. For the same compound, the AC50 under setting [1] was 0.731 µM [rising, full curve, poor fit]. Besides, the concentration at half-maximal activity (AC50) under setting [2] was 3.26 µM [rising, partial curve, poor fit].

Consider `CS(=O)(=O)N1CCc2cc(C(=O)N3CCOCC3)ccc21`, for which the cell number change is -20.5%. For the same compound, the AC50 under setting [1] was 0.092 µM [falling, full curve, poor fit]. Besides, the AC50 under setting [2] is 0.92 µM [falling, full curve, poor fit].

For `O=S(=O)(c1ccccc1F)N1CCN(Cc2nc3ccccc3[nH]2)CC1`, the cell number change is -79.7%. Besides, the AC50 under setting [1] is 16.4 µM [falling, partial curve]. For the same compound, the AC50 under setting [2] was 10.3 µM [falling, partial curve].

Turning to `Oc1ccc(Br)cc1/C=N/n1c(COc2ccccc2)n[nH]c1=S`, the cell number change was -47.5%. Also, the AC50 under setting [1] is 25.9 µM [falling, single point]. Besides, the AC50 under setting [2] is 18.4 µM [falling, partial curve].

As for `O=C(CCc1nnc(Cc2ccc3c(c2)OCO3)o1)N(CC1CCC1)CC1CCCO1` (stereo unspecified), the cell number change was -0.645%. Further, the AC50 under setting [1] is 0.58 µM [rising, single point]. Moreover, the AC50 under setting [2] is 0.731 µM [rising, single point].

Take `O=C(/C=C/c1ccccc1Cl)c1ccccc(=O)c1O`: the cell number change is -0.762%. The AC50 under setting [2] was 29.1 µM [falling, single point].

For the compound `Cc1cccc(C)c1NC(=O)NN(C(=O)c1ccccc1)C(C)(C)C`, the cell number change was -4.89%. Also, the AC50 under setting [2] is 0.00731 µM [rising, full curve, poor fit].

With `OC(CNCCC1C=Nc2ccccc21)Cn1c2ccc(Cl)cc2c2cc(Cl)ccc21` (stereo unspecified), the cell number change was -94%. For the same compound, under setting [1], the AC50 was 13 µM [falling, partial curve]. Also, the AC50 under setting [2] is 16.4 µM [falling, partial curve, poor fit].

`CCC(C)c1ccc(S(=O)(=O)N2CCN(S(=O)(=O)c3ccc(NC(C)=O)cc3)CC2)cc1` (stereo unspecified): the cell number change stood at 82.1%. The half-maximal activity concentration (AC50) under setting [1] is 29.1 µM [rising, single point]. Under setting [2], the AC50 is 4.11 µM [falling, full curve].

For the compound `Fc1ccc(-c2n[nH]c(=S)n2CC2CCCO2)cc1` (stereo unspecified), the cell number change is 24.9%. Moreover, the AC50 under setting [2] is 2.91 µM [rising, single point].

In the case of `CCc1[nH]nc2c1C(Cc1ccccc1)C(C#N)=C(N)O2` (stereo unspecified), the AC50 was 0.411 µM [falling, partial curve, poor fit] under setting [1] and 29.1 µM [rising, single point] under setting [2].

Take `CCOc1ccc(CCNC(=O)COc2cccc(-n3cnnn3)c2)cc1OCC`: the cell number change is -35.4%. The AC50 under setting [1] was 14.6 µM [falling, partial curve]. The AC50 under setting [2] was 13 µM [falling, single point].

Consider `Cc1cc([N+](=O)[O-])nn1CCCC(=O)NC(C)c1ccccc1` (stereo unspecified), for which the cell number change is 58.6%. In addition, the AC50 under setting [1] is 29.1 µM [rising, single point]. Besides, the AC50 under setting [2] was 20.6 µM [rising, single point].

Regarding `CC1=CC(C)(C)N2C(=O)C3(C(C#N)=C(N)OC4=C3C(=O)CC(C)(C)C4)c3cccc1c32` (stereo unspecified), the cell number change turned out to be 20.2%. Moreover, the AC50 under setting [2] is 0.411 µM [falling, single point].

For the compound `Cn1c(CN2CCN(C(=O)c3ccccc3Cl)CC2)nc2cc([N+](=O)[O-])ccc21`, the cell number change was -17.8%. For the same compound, the AC50 under setting [1] was 6.51 µM [rising, partial curve].

Consider `Cc1cc(C(=O)COC(=O)c2ccc(O)cc2)c(C)n1CC1COc2ccccc2O1` (stereo unspecified), for which the cell number change is -100%. The AC50 under setting [1] was 29.1 µM [falling, partial curve, poor fit]. Further, the AC50 under setting [2] is 13 µM [falling, partial curve].

On to `COc1ccc(C2NC(C(=O)O)CS2)cc1COCC(F)(F)F` (stereo unspecified), for which the cell number change is -6.83%. Besides, the AC50 under setting [1] is 0.00517 µM [falling, full curve, poor fit].

Turning to `CCOC(=O)c1c(CN2CCN(C)CC2)oc2ccc(O)cc12`, the cell number change is -113%. Besides, the AC50 under setting [1] is 29.1 µM [falling, single point]. Further, the AC50 under setting [2] was 29.1 µM [falling, single point].

For `Cc1ccc(S(=O)(=O)N2CCCCC2)cc1NC(=O)c1cncc(Br)c1`, the cell number change is -23.7%. For the same compound, the AC50 under setting [1] is 4.11 µM [falling, full curve, poor fit].

With `Nc1cc(=O)[nH]c(SCc2ccc(Cl)cc2)n1`, the cell number change worked out at 9.08%. Under setting [2], the half-maximal activity concentration (AC50) is 0.0058 µM [falling, full curve, poor fit].

For `COC(=O)c1cc(S(=O)(=O)NCC2CCN(Cc3cccc(F)c3)CC2)c[nH]1`, the cell number change was -2.09%.

`O=C(CCS(=O)(=O)c1ccc(F)cc1)Nc1nnc(-c2cccs2)o1`: the AC50 under setting [2] was 6.51 µM [rising, single point].

For the compound `O=C(c1ccccc1)c1ccc2cc(O)ccc2c1`, the cell number change is -56.8%. The AC50 under setting [1] is 29.1 µM [falling, single point]. The AC50 under setting [2] was 29.1 µM [falling, single point].

In the case of `CC(C)Cc1cc(C(=O)N2CCCC(CO)(Cc3ccc(F)cc3)C2)no1` (stereo unspecified), the cell number change worked out at 22.7%.

Regarding `CC(=O)c1cccc(NC(=O)Nc2ccccc2)c1`, the AC50 under setting [1] was 0.58 µM [falling, single point].

Consider `O=C(Nc1nnc(Cc2ccccc2)s1)c1cccnc1`, for which the cell number change is -17.7%. Also, the AC50 under setting [1] was 0.411 µM [falling, full curve, poor fit]. Besides, the AC50 under setting [2] was 0.058 µM [falling, full curve, poor fit].

As for `CCn1c(SCCC(=O)O)nnc1-c1cccnc1`, the cell number change turned out to be 3.67%. Further, under setting [1], the AC50 was 6.51 µM [falling, single point]. Also, the concentration at half-maximal activity (AC50) under setting [2] is 29.1 µM [falling, single point].

On to `Cc1ccc(NC(=O)C2CCN(S(=O)(=O)c3ccc4c(c3)OCCCO4)CC2)nc1`, for which the AC50 is 6.51 µM [rising, single point] under setting [1] and 4.61 µM [falling, single point] under setting [2].

Consider `CC(=O)Cn1c2ccccc2n2nc(CCC(=O)O)c(=O)nc12`, for which the cell number change was -12.3%. Also, the AC50 under setting [1] was 2.31 µM [falling, partial curve, poor fit]. Further, the AC50 under setting [2] is 1.16 µM [falling, full curve, poor fit].

As to `CSc1ccc(/C=C/C(=O)N2CCN(c3ccccn3)CC2)cc1`, the cell number change was found to be 11.4%. In addition, the AC50 under setting [2] was 29.1 µM [falling, single point].

Consider `CCc1cc2c(C)ccc(C)c2nc1SCC(=O)Nc1c(C)[nH]c(=O)[nH]c1=O`, for which the cell number change turned out to be 9.78%. The AC50 under setting [2] is 8.2 µM [rising, partial curve].

With `COc1ccc(CNc2c(C(=O)O)cnc3c2cnn3C)cc1`, the cell number change is -5.98%. Also, under setting [1], the AC50 was 1.84 µM [falling, partial curve].

For `Cn1c(=O)c2c(nc(NCc3ccccc3)n2CCCc2ccccc2)n(C)c1=O`, the cell number change turned out to be 98.1%. Besides, the AC50 under setting [1] was 2.31 µM [rising, full curve]. In addition, the AC50 under setting [2] was 4.11 µM [rising, partial curve].

For the compound `Cc1ccc(S(=O)(=O)N(C)Cc2nc(-c3ccncc3)no2)cc1`, the AC50 under setting [1] was 2.59 µM [rising, partial curve].
